Binding data for two molecules are collected here from PMC10937811.

This test addresses mouse APOL6 (Apolipoprotein L6) (mouse (endogenous in ATMSCs of C57BL/6 mice)). Nature of the test: affinity purification with mass spectrometry; immunoprecipitates of ATMSCs from C57BL/6 WT or mAPOL6 KO mice, rabbit antibodies raised against the mAPOL6 D36-K52 peptide; mass spectrometry.

These are yes or no findings as the source states them, for the method shown. In cells and extracts the contact can be indirect. A yes stands for co-enrichment or nearness to the bait. Other partners may have been found.

B1: myosin regulatory light chain (Q3THE2) (protein, UniProt Q3THE2 1-172)
chain: MSSKKAKTKTTKKRPQRATSNVFAMFDQSQIQEFKEAFNMIDQNRDGFIDKEDLHDMLASLGKNPTDAYLDAMMNEAPGPINFTMFLTMFGEKLNGTDPEDVIRNAFACFDEEATGTIQEDYLRELLTTMGDRFTDEEVDELYREAPIDKKGNFNYIEFTRILKHGAKDKDD
On to B1, for which the binding result was “binds”.

B2: myosin essential light chain (A0A1W2P6F6) (protein, UniProt Q60605 1-151)
chain: MCDFTEDQTAEFKEAFQLFDRTGDGKILYSQCGDVMRALGQNPTNAEVLKVLGNPKSDEMNVKVLDFEHFLPMLQTVAKNKDQGTYEDYVEGLRVFDKEGNGTVMGAEIRHVLVTLGEKMTEEEVEMLVAGHEDSNGCINYEAFVRHILSG
For B2, the binding entry is reported as “binds”.
